# Results of single-concentration screens

The chains behind the UniProt entries cited, without tags or fusion partners. Residues count along the entry.
UniProt Q8IDJ8, 1-583: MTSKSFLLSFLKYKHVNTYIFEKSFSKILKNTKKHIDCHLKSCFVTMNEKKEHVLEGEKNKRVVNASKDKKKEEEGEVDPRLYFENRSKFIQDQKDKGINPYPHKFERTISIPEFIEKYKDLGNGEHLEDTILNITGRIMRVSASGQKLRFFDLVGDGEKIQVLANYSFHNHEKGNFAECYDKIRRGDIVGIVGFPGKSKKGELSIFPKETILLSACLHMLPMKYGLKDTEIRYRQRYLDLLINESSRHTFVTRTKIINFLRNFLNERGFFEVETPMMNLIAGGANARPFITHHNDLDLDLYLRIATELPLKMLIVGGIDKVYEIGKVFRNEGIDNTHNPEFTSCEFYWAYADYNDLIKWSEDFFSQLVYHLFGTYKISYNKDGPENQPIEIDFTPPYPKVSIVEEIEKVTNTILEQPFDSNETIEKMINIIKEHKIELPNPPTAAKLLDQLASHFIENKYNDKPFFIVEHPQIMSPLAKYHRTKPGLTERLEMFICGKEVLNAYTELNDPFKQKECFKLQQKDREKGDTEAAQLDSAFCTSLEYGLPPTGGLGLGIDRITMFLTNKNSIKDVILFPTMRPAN
UniProt A4I591, 1-473: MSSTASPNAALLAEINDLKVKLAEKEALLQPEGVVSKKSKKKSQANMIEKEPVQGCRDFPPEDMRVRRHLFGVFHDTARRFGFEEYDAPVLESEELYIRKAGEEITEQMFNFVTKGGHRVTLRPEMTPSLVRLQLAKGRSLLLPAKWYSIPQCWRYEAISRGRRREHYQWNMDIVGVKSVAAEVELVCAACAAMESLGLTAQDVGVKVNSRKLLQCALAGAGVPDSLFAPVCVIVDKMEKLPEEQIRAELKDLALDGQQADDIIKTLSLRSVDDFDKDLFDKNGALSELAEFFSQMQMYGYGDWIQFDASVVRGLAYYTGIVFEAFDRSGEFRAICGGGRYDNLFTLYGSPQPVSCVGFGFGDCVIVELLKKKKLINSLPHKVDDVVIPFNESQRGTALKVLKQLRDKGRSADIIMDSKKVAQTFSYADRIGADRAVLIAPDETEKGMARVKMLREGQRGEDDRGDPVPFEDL

Values are the deposited “Percent Effect”, in %.
The record does not define 0% and 100%; most values in the screen are far below 50% and negative numbers occur (in some assays of this library far below -100).
The compounds are a random part of those screened.

T. brucei: 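Whole-parasite assay of Trypanosoma brucei over 72 hours; the read-out is not stated. Tested at 30 µM. Higher reads as stronger inhibition (inferred: compounds with an IC50 in retests scored well above the rest). Values scatter widely below zero; nearly all retest evidence comes from the higher of the two concentrations used. About 64,000 compounds were tested under these conditions; 1.5% (about 940) showed 50% or more at least once.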
PfKRS1: 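Lysine-tRNA ligase, Plasmodium falciparum 3D7 (UniProt Q8IDJ8). Enzyme assay of the cytosolic lysyl-tRNA synthetase in 384-well plates, read by luminescence. Concentration: 30 µM. Higher reads as stronger inhibition, judged from the few compounds that gave an IC50. Of about 69,000 compounds tested this way, about 49 (0.071%) reached 50% or more in at least one test.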
LiHisRS: 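Histidine-tRNA ligase, Leishmania infantum (UniProt A4I591). Enzyme assay of histidyl-tRNA synthetase; the read-out is not stated. Compounds at 30 µM. Direction is inferred from retests: higher values go with stronger inhibition. The assay is labelled LdHisRS but filed under L. infantum. Size under these conditions: about 69,000 compounds, about 410 of them at 50% or above in at least one test.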
Toxoplasma: 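Assay of Toxoplasma gondii numbers, read through their beta-galactosidase reporter with a colour substrate. Tested at 10 µM. The record gives no direction; the compounds picked for IC50 retests had high values, so higher reads as fewer parasites. Of about 67,000 compounds tested this way, about 260 (0.38%) reached 50% or more in at least one test.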

- CS(=O)(=O)N1CCN(CC(O)COc2ccc(Cl)cc2)CC1 (centres unmarked) : PfKRS1: 1.341%; LiHisRS: 16.81%; Toxoplasma: -9.481%
- CCN1CCN(C)C2(CCN(Cc3ccsc3)CC2)C1=O : PfKRS1: 1.52%; LiHisRS: 19.27%
- CC(C)C(O)CNC(=O)Nc1cnn(Cc2ccccc2)c1 (centres unmarked) : T. brucei: 4.209%; PfKRS1: 8.134%; LiHisRS: 8.108%; Toxoplasma: -4.773%
- CN(CCCc1cnn(C)c1)C(=O)C1CCC(=O)N(C2CCCC2)C1 (centres unmarked) : T. brucei: 8.355%; PfKRS1: 5.912%; LiHisRS: 20.41%; Toxoplasma: 2.481%
- CS(=O)(=O)CCn1ccc(NCc2ccc(C#N)cc2)n1 : T. brucei: -29.55%; PfKRS1: 2.95%; LiHisRS: 3.665%; Toxoplasma: 1.81%
- O=C(Nc1ccncc1)NC1CCN(c2ccccc2OC(F)F)C1 (centres unmarked) : T. brucei: 57.33%; PfKRS1: 8.454%; LiHisRS: 21.57%; Toxoplasma: 74.41%
- COc1cccc(N2CCN(C(C(=O)O)c3ccc(OC)nc3)CC2)c1 (centres unmarked) : T. brucei: -13.83%; PfKRS1: 2.927%; LiHisRS: 15.87%; Toxoplasma: -57.2%
- CC(C)n1nccc1C(=O)N1CCC(c2nnsc2S(C)(=O)=O)CC1 : T. brucei: -3.28%; PfKRS1: -0.1281%; LiHisRS: 14.49%; Toxoplasma: -10.3%
- Fc1cccc(-n2cc(CN3CCCCC3CCn3ccnc3)cn2)c1 (centres unmarked) : T. brucei: -43.9%; PfKRS1: 0.5765%; LiHisRS: 13.7%; Toxoplasma: 7.268%
- Cc1ccc(CN2C[C@@H](C(=O)O)[C@H](c3ccccn3)C2)o1 : T. brucei: -9.117%; PfKRS1: -2.231%; LiHisRS: 0%; Toxoplasma: -0.2596%
- Cc1ccc(C(=O)Nc2cccc3c2C(=O)NC3)c(C)n1 : T. brucei: -18.18%; PfKRS1: 3.063%; LiHisRS: 12.68%; Toxoplasma: 7.537%
- [H][C@@]12C[C@H](C)O[C@@]1([H])CCN(S(=O)(=O)c1ccc(F)cc1)C2 : T. brucei: -15.77%; Toxoplasma: 4.993%
- Cc1ccc(CN2Cc3ccccc3O[C@]3(CC[C@H](CO)CC3)C2)o1.Cl : T. brucei: -8.986%; Toxoplasma: -15.76%
- CCNC(=O)[C@@H]1C[C@@H](NC(=O)Cc2cc(C)no2)CN1Cc1ccsc1 : T. brucei: 1.848%; PfKRS1: 3.977%; LiHisRS: 20.78%; Toxoplasma: -11.42%
- CNC(=O)CN1CCC(NC2CSCCc3ccccc32)CC1 (centres unmarked) : T. brucei: -65.68%; PfKRS1: -1.406%; LiHisRS: 8.333%; Toxoplasma: 0.1082%
- O=C(c1cccn1Cc1cccs1)N1CCN(C2CC2)CC1 : T. brucei: 22.18%; PfKRS1: 4.973%; LiHisRS: 16.44%; Toxoplasma: 1.059%
- CC(NC(=O)c1ccc2c(c1)COC2)c1cccc(N2CCOC2=O)c1 (centres unmarked) : T. brucei: -32.06%; PfKRS1: 7.916%; LiHisRS: 6.667%; Toxoplasma: -28.75%

Measurements from “University of Dundee, Small-Polar-MMV Screening Library” (2021), ChEMBL document CHEMBL3988442.